Results are given in words; binding and its absence hold for the method and conditions named. In cells and extracts the contact can be indirect. Some binding calls cover weakened binding; strength is not graded here.
Target: T1, Barx2 (UniProt O08686)
T1 sequence: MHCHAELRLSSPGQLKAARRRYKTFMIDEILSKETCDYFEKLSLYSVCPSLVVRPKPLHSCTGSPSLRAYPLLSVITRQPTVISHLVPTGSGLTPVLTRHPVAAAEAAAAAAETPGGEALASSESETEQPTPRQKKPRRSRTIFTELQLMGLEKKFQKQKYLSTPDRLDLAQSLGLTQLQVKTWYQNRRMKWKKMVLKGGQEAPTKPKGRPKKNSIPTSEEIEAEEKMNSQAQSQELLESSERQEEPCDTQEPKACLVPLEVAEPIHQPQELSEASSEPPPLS
Assay: co-IP; COS1 or C2C12 cells co-transfected with Barx2/pcDNA3 and Hes6/pCMVSport6; lysates 48 h after transfection, pre-cleared with Protein A-Sepharose, incubated overnight at 4°C with 5 µg anti-Barx2 rabbit antibody or preimmune serum; precipitated with Protein A-Sepharose, washed four times, immunoblotted with anti-Hes6 goat antibody

B1: Hes6 (protein, UniProt Q9JHE6 1-224)
chain: MAPSQAPSRDRAGQEDEDRWEARGDRKARKPLVEKKRRARINESLQELRLLLAGTEVQAKLENAEVLELTVRRVQGALRGRAREREQLQAEASERFAAGYIQCMHEVHTFVSTCQAIDATVSAELLNHLLESMPLREGSSFQDLLGDSLAGLPGGSGRSSWPPGGSPESPLSSPPGPGDDLCSDLEEIPEAELNRVPAEGPDLVSTSLGSLTAARRAQSVWRPW
- binding: binds

Reference: publication PMC2904708
